Substitutions are numbered along the chain they refer to. These are yes or no findings as the source states them, for the method shown. Some results given as binding are weak or reduced against the parent protein; the word gives no strength. For part of these data: Sequences can lack the tags named with a protein. Values belong to the binder of their own block, whether it stands above or below them.
Assays:
[1] = target: T1, TM4SF5 (antigen of SPR/BIACORE/ELISA, construct not stated) (UniProt O14894); assay: ELISA with purified scFv
T1 sequence (looked up): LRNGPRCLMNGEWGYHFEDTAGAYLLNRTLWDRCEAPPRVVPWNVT

[2] = target: TM4SF5 (cell-surface target on Tp cells) (UniProt O14894); assay: IF on cells
[3] = target: TM4SF5 (cell-surface target on Tp cells) (UniProt O14894); assay: FACS on cells
[4] = target: TM4SF5 (cell-surface target on Tp cells) (UniProt O14894); assay: summary of BIACORE, FACS and IF
[5] = target: TM4SF5 (cell-surface target on Tp cells) (UniProt O14894); assay: FACS, cell-surface target-binding ability
[6] = target: T1, TM4SF5 (antigen of SPR/BIACORE/ELISA, construct not stated); assay: BIACORE
[7] = target: TM4SF5 (cell-surface target on Tp cells) (UniProt O14894); assay: FACS on Cp and Tp cells
[8] = target: TM4SF5 (cell-surface target on Tp cells) (UniProt O14894); assay: summary of FACS, IF and BIACORE
[9] = target: TM4SF5 (cell-surface target on Tp cells) (UniProt O14894); assay: FACS on Tp cells (internalization experiment)
[10] = target: T1, TM4SF5 (antigen of SPR/BIACORE/ELISA, construct not stated); assay: ELISA normalized to expression levels, library output clones
[11] = target: T1, TM4SF5 (antigen of SPR/BIACORE/ELISA, construct not stated); assay: BIACORE, order of binding affinity
[12] = target: T2, GST fusion protein (expression host cell: E. coli) (UniProt O14894); assay: Biacore, anti-human Fc capture, GST fusion protein (E. coli) as analyte
T2 sequence (looked up): T1 sequence (looked up)

[13] = target: T3, TM4SF5-Fc antigen protein (UniProt O14894); assay: Biacore, TM4SF5-Fc immobilized directly on the chip
T3 sequence (looked up): T1 sequence (looked up)

[14] = target: T4, GST fusion protein (expression host cell: HEK) (UniProt O14894); assay: anti-human Fc capture method, GST fusion protein (HEK) as analyte
T4 sequence (looked up): T1 sequence (looked up)

binding [1]: binds
B1: huAb27-9 scFv (WT) (scFv, V domains shown, not shown: a dimerising Fc or GST; small tags and cut ends)
VH: QVQLVQSGAEVKKPGASVKVSCKASGYTFTDYEMHWVRQAPGQGLEWMGAIDPETGGTAYNQKFKGRVTMTADKSISTAYMELSRLRSDDTAVYYCARPYLGYWGQGTLVTVSS
VL: EIVLTQSPGTLSLSPGERATLSCRSSQSLVHSNGNTYLHWYQQKPGQAPRLLIYKVSNRFSGIPDRFSGSGSGTDFTLTISRLEPEDFAVYYCFQGSHIPLTFGQGTKVEIK

binding [2]: binds
binding [3]: binds
binding [4]: binds
binding [5]: binds
B2: EO1 H(G)L(GG) (antibody, V domains shown, not shown: a dimerising Fc or GST)
VH: B1 VH with Q1E, E10D, K13E, R67W, A97T
VL: EIVLTQSPGMLSLSPGERATLSCRSSQSLVHRNGNTYLHWYQQKPGQAPRLLIYKVSNRFSGIPDRFSGSGSGTDFTLTISRLEPEDFAVYYCFQGSHIPLTFGQGTKVEIKG

binding [6]: binds
binding [2]: binds
binding [3]: binds
binding [7]: binds
binding [11]: binds
binding [5]: binds
binding [12]: binds
B6: huAb27-9_E01 IgG (antibody, V domains shown)
VH: B1 VH with Q1E, E10D, K13E, R67W, A97T
VL: B2 VL with G113R

binding [6]: binds
binding [2]: binds
binding [3]: binds
binding [7]: binds
binding [4]: binds
binding [11]: binds
B7: Hz#9 H(G)L(GG) (antibody, V domains shown, not shown: a dimerising Fc or GST)
VH: B1 VH
VL: B2 VL with M10T, R32S

binding [2]: binds
binding [5]: binds
B12: EO1 (G) (antibody, V domains shown, not shown: a dimerising Fc or GST)
VH: B1 VH with Q1E, E10D, K13E, R67W, A97T
VL: B2 VL

binding [2]: binds
binding [5]: binds
B14: EO1 (G2) (antibody, V domains shown, not shown: a dimerising Fc or GST)
VH: B1 VH with Q1E, E10D, K13E, R67W, A97T
VL: B2 VL

binding [2]: binds
binding [5]: binds
B15: EO1 H(GG)L(G) (antibody, V domains shown, not shown: a dimerising Fc or GST)
VH: B1 VH with Q1E, E10D, K13E, R67W, A97T
VL: B2 VL

binding [6]: binds
binding [2]: binds
binding [3]: binds
binding [7]: binds
binding [4]: binds
binding [11]: binds
binding [5]: binds
binding [12]: binds
B16: S43 IgG (antibody, V domains shown)
VH: B1 VH with T28R, E54A, T55F
VL: B1 VL
notes: IgG1; also called huAb27-9_M74; M74

binding [6]: binds
binding [2]: binds
binding [3]: binds
binding [7]: binds
binding [11]: binds
binding [5]: binds
binding [13]: binds
binding [14]: binds
binding [12]: binds
B17: huAb27-9 IgG (antibody, V domains shown)
VH: B1 VH
VL: B2 VL with M10T, R32S, G113R
notes: IgG1 format; also called Hz#9 IgG; Hz #9 IgG

More lines, now with the values behind:

B3: 1-5 IgG (antibody, V domains shown)
VH: B1 VH with A59F, Y60V, N61K, Q62R
VL: B1 VL
notes: IgG; also called T1-5
binding [6]: binds
binding [2]: binds
binding [3]: binds
binding [7]: binds
binding [8]: binds
binding [9]: binds

B4: S43 (G2) (antibody, V domains shown, not shown: a dimerising Fc or GST)
VH: B1 VH with T28R, E54A, T55F
VL: B2 VL with M10T, R32S
binding [2]: binds
binding [3]: binds
binding [5]: binds

B5: T1-5 clone (Fab library output) (Fab, V domains shown)
VH: B1 VH with A59F, Y60V, N61K, Q62R
VL: B1 VL
binding [10]: binds

B8: 2-1 IgG (antibody, V domains shown)
VH: B1 VH with A59F, Y60V, N61V, Q62S
VL: B1 VL
binding [6]: binds
binding [2]: binds
binding [3]: binds
binding [7]: binds
binding [8]: binds

B9: S43 (G) (antibody, V domains shown, not shown: a dimerising Fc or GST)
VH: B1 VH with T28R, E54A, T55F
VL: B2 VL with M10T, R32S
binding [2]: binds
binding [5]: binds

B10: T2-1 clone (Fab library output) (Fab, V domains shown)
VH: B1 VH with A59F, Y60V, N61V, Q62S
VL: B1 VL
binding [10]: binds

B11: S43 H(G)L(GG) (antibody, V domains shown, not shown: a dimerising Fc or GST)
VH: B1 VH with T28R, E54A, T55F
VL: B2 VL with M10T, R32S
binding [2]: binds
binding [5]: binds

B13: S43 H(GG)L(G) (antibody, V domains shown, not shown: a dimerising Fc or GST)
VH: B1 VH with T28R, E54A, T55F
VL: B2 VL with M10T, R32S
binding [2]: binds
binding [5]: binds
